According to PMC13346543:

Key:
GST-NRF1 [1] = target: T1, GST-NRF1 (UniProt Q16656); test: competition with a labelled probe; settings: 10x cold competitor vs biotin EZH2-bio1, does not block; Chemiluminescent EMSA kit (Beyotime), manufacturer's instructions; pH and temperature not stated; recombinant protein; residues 1-503; protein details: N-terminal GST (pGEX-4T-1)
T1 sequence (looked up): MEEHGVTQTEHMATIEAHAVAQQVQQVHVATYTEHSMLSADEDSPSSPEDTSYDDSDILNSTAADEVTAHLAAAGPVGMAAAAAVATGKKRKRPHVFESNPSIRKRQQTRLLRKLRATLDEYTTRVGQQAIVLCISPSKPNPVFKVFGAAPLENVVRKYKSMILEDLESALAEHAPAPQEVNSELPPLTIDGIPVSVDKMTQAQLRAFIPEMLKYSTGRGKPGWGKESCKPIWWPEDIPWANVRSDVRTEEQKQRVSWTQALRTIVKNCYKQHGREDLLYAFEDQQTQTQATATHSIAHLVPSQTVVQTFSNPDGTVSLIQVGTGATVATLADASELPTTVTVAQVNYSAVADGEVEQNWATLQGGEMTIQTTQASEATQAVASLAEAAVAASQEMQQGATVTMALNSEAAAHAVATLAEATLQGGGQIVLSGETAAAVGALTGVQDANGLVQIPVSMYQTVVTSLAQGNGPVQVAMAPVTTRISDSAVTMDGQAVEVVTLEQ

GST-NRF1 [2] = target: T1, GST-NRF1; test: EMSA; settings: Chemiluminescent EMSA kit (Beyotime), manufacturer's instructions; pH and temperature not stated; recombinant protein; residues 1-503; protein details: N-terminal GST (pGEX-4T-1); label: 3'-biotin

Sequence | binding result (GST-NRF1 [1]) | binding result (GST-NRF1 [2])
TTACAGCGAACCCCGCCGCTGGAGGTCAGTCCGTTGGTCTGCGCC (double strand) [EZH2-mut cold] | no binding | 
GCGCGCGGGGAAACGAGCGC (double strand) [EZH2-bio3] |  | no binding
ATCGCGCCATTGCACTCCAG (double strand) [EZH2-bio2] |  | no binding

Construct, isoform or probe ends are uncertain for at least one entry. No signal at the amounts used counts as a negative. Where a protein sequence is shown, tags need not be part of it.
